According to publication PMC8887752:
These are yes or no findings as the source states them, for the method shown. Some results given as binding are weak or reduced against the parent protein; the word gives no strength.

Protein sequences, listed by entry. Tags and fused reporters are not part of them.
UniProt P61829: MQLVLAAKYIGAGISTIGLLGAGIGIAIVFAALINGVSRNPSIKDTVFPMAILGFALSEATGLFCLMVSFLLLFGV

Target: Atp9 (yeast (endogenous in isolated mitochondria)) (UniProt P61829)
Test: SDS-PAGE and autoradiography of an SDS-resistant oligomer; translation products radiolabeled in isolated mitochondria for 30 minutes, chase with cold methionine at 30°C for 0, 10 or 30 minutes; monomeric and oligomeric Atp9 resolved by SDS-PAGE

Atp9 (from UniProt P61829 1-76) was tested, and the binding was “binds”.
